Values of other authors, collected in patent US12357536B2, “Containers with selective dissolved gas content” (BAXTER INTERNATIONAL INC., priority 2021, dated 2025).
Read-outs that look alike come from different tables or passages of the source. This continues a long series; more values of the same kind are listed elsewhere.

Conditions: 760 mm Hg, salinity 0.0 ppt, cited from earlier work

O=O [oxygen]
Solubility of oxygen (0.0 °C): 14.602 ppm
Solubility of oxygen (0.2 °C): 14.520 ppm
Solubility of oxygen (0.4 °C): 14.438 ppm
Solubility of oxygen (0.6 °C): 14.358 ppm
Solubility of oxygen (0.8 °C): 14.278 ppm
Solubility of oxygen (1.0 °C): 14.198 ppm
Solubility of oxygen (1.2 °C): 14.120 ppm
Solubility of oxygen (1.4 °C): 14.042 ppm
Solubility of oxygen (1.6 °C): 13.969 ppm
Solubility of oxygen (1.8 °C): 13.889 ppm
Solubility of oxygen (2.0 °C): 13.813 ppm
Solubility of oxygen (2.2 °C): 13.738 ppm
Solubility of oxygen (2.4 °C): 13.664 ppm
Solubility of oxygen (2.6 °C): 13.591 ppm
Solubility of oxygen (2.8 °C): 13.518 ppm
Solubility of oxygen (23.0 °C): 8.560 ppm
Solubility of oxygen (23.2 °C): 8.528 ppm
Solubility of oxygen (23.4 °C): 8.495 ppm
Solubility of oxygen (23.6 °C): 8.463 ppm
Solubility of oxygen (23.8 °C): 8.431 ppm
Solubility of oxygen (24.0 °C): 8.400 ppm
Solubility of oxygen (24.2 °C): 8.368 ppm
Solubility of oxygen (24.4 °C): 8.337 ppm
Solubility of oxygen (24.6 °C): 8.306 ppm
Solubility of oxygen (24.8 °C): 8.275 ppm
Solubility of oxygen (25.0 °C): 8.244 ppm
Solubility of oxygen (25.2 °C): 9.214 ppm
Solubility of oxygen (25.4 °C): 8.184 ppm
Solubility of oxygen (25.6 °C): 8.153 ppm
Solubility of oxygen (25.8 °C): 8.124 ppm
Solubility of oxygen (26.0 °C): 8.094 ppm
Solubility of oxygen (26.2 °C): 8.065 ppm
Solubility of oxygen (26.4 °C): 8.035 ppm
Solubility of oxygen (26.6 °C): 8.006 ppm
Solubility of oxygen (26.8 °C): 7.977 ppm
Solubility of oxygen (27.0 °C): 7.949 ppm
Solubility of oxygen (27.2 °C): 7.920 ppm
Solubility of oxygen (27.4 °C): 7.892 ppm
Solubility of oxygen (27.6 °C): 7.864 ppm
Solubility of oxygen (27.8 °C): 7.836 ppm
Solubility of oxygen (28.0 °C): 7.808 ppm
Solubility of oxygen (28.2 °C): 7.780 ppm
Solubility of oxygen (28.4 °C): 7.753 ppm
Solubility of oxygen (28.6 °C): 7.725 ppm
Solubility of oxygen (28.8 °C): 7.698 ppm
Solubility of oxygen (29.0 °C): 7.671 ppm
Solubility of oxygen (29.2 °C): 7.645 ppm
Solubility of oxygen (29.4 °C): 7.618 ppm
Solubility of oxygen (29.6 °C): 7.592 ppm
Solubility of oxygen (29.8 °C): 7.565 ppm
